Laboratory results: publication PMC3934309
No constants are given. Whether binding was seen depends on the method and setting. Tags and fused reporters may be left off the sequences shown.

Columns and labels:
[1] = biological target: CelDwt, endoglucanase CelD from Clostridium thermocellum (Clostridium thermocellum) (UniProt A3DDN1); test: SEC; Superdex 200 16/60, buffer 40 mM Tris pH 7.7, after TEV cleavage and second IMAC; both purified
[2] = biological target: CelDnc, truncated construct of the endoglucanase CelD from Clostridium thermocellum (Clostridium thermocellum) (UniProt A3DDN1); test: as above

| binding [1] | binding [2] | Binder |
| --- | --- | --- |
| no binding |  | CelDwt, endoglucanase CelD from Clostridium thermocellum (enzyme, UniProt A3DDN1 42-649) AKITENYQFDSRIRLNSIGFIPNHSKKATIAANCSTFYVVKEDGTIVYTGTATSMFDNDTKETVYIADFSSVNEEGTYYLAVPGVGKSVNFKIAMNVYEDAFKTAMLGMYLLRCGTSVSATYNGIHYSHGPCHTNDAYLDYINGQHTKKDSTKGWHDAGDYNKYVVNAGITVGSMFLAWEHFKDQLEPVALEIPEKNNSIPDFLDELKYEIDWILTMQYPDGSGRVAHKVSTRNFGGFIMPENEHDERFFVPWSSAATADFVAMTAMAARIFRPYDPQYAEKCINAAKVSYEFLKNNPANVFANQSGFSTGEYATVSDADDRLWAAAEMWETLGDEEYLRDFENRAAQFSKKIEADFDWDNVANLGMFTYLLSERPGKNPALVQSIKDSLLSTADSIVRTSQNHGYGRTLGTTYYWGCNGTVVRQTMILQVANKISPNNDYVNAALDAISHVFGRNYYNRSYVTGLGINPPMNPHDRRSGADGIWEPWPGYLVGGGWPGPKDWVDIQDSYQTNEIAINWNAALIYALAGFVNYNSAQNEVLYGDVNDDGKVNSTDLTLLKRYVLKAVSTLPSSKAEKNADVNRDGRVNSSDVTILSRYLIRVIEKLPI |
|  | no binding | CelDnc, truncated construct of the endoglucanase CelD from Clostridium thermocellum (domain or fragment, UniProt A3DDN1 32-577) SGLIETKVSAAKITENYQFDSRIRLNSIGFIPNHSKKATIAANCSTFYVVKEDGTIVYTGTATSMFDNDTKETVYIADFSSVNEEGTYYLAVPGVGKSVNFKIAMNVYEDAFKTAMLGMYLLRCGTSVSATYNGIHYSHGPCHTNDAYLDYINGQHTKKDSTKGWHDAGDYNKYVVNAGITVGSMFLAWEHFKDQLEPVALEIPEKNNSIPDFLDELKYEIDWILTMQYPDGSGRVAHKVSTRNFGGFIMPENEHDERFFVPWSSAATADFVAMTAMAARIFRPYDPQYAEKCINAAKVSYEFLKNNPANVFANQSGFSTGEYATVSDADDRLWAAAEMWETLGDEEYLRDFENRAAQFSKKIEADFDWDNVANLGMFTYLLSERPGKNPALVQSIKDSLLSTADSIVRTSQNHGYGRTLGTTYYWGCNGTVVRQTMILQVANKISPNNDYVNAALDAISHVFGRNYYNRSYVTGLGINPPMNPHDRRSGADGIWEPWPGYLVGGGWPGPKDWVDIQDSYQTNEIAINWNAALIYALAGFVNYNSA |
